# Reference: the supplement of paper PMC12067093, “Discovery and optimisation of a covalent ligand for TRIM25 and its application to targeted protein ubiquitination” (Chemical Science, 2025)
# Chains of the proteins cited; added tags and fusions are not shown. Lines headed by an entry give the natural chain unless they say otherwise; changes in a name come on top.
# UniProt Q9NP72: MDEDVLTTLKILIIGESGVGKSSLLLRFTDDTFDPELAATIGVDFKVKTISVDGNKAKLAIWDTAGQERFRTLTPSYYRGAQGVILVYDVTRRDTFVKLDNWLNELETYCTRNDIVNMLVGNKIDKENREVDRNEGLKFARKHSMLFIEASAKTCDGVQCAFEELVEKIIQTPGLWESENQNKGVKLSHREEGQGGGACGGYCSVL
# UniProt O15315: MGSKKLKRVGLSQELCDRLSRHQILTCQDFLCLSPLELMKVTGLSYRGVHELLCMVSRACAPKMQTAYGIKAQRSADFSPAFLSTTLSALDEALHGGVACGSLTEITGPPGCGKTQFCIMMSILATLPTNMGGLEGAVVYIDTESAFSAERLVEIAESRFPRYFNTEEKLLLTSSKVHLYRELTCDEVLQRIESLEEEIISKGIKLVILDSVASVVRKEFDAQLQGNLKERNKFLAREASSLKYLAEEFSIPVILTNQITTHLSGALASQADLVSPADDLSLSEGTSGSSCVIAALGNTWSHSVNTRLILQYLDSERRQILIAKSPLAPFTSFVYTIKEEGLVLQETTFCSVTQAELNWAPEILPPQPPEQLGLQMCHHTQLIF
# UniProt Q8N1Y9: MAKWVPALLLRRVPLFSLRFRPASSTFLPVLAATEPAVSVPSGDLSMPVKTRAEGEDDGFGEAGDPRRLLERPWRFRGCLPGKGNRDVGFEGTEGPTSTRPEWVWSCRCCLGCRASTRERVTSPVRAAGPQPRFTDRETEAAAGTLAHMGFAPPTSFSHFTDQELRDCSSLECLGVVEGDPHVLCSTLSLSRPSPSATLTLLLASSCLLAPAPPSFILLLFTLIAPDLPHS
# UniProt Q9H5N1: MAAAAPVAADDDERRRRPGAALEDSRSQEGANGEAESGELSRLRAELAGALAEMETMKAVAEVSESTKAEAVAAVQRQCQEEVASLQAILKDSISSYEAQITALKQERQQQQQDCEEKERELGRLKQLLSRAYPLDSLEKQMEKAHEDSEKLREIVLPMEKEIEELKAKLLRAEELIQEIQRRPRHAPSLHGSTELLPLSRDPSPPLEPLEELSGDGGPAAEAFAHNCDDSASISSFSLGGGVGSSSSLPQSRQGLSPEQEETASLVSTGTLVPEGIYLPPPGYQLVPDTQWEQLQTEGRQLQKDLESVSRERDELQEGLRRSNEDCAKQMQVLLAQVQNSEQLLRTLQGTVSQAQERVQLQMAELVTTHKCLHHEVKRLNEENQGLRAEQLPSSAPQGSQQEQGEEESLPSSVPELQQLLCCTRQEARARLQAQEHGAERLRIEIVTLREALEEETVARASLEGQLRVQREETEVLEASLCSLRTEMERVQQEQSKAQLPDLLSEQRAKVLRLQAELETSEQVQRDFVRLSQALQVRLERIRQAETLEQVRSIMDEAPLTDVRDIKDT
# UniProt P47897: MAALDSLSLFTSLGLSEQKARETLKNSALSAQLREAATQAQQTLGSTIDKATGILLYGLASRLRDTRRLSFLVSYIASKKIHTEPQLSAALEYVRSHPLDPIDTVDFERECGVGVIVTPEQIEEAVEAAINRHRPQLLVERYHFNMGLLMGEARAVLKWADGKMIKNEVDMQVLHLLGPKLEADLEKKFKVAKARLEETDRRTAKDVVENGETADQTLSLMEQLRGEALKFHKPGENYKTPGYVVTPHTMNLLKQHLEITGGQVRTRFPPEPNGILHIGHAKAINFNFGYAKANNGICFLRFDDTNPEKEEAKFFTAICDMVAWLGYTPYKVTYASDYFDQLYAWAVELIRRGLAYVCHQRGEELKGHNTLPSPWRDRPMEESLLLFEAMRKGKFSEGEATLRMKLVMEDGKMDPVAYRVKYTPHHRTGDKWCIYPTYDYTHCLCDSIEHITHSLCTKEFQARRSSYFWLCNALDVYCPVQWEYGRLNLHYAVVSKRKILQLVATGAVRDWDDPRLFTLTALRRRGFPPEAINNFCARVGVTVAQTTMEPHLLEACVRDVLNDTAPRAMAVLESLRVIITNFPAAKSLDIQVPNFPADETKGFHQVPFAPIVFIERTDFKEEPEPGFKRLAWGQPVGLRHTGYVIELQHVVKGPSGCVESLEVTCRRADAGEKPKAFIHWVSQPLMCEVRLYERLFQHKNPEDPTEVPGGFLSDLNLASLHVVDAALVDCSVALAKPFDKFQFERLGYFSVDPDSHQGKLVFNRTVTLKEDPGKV
# UniProt Q92878: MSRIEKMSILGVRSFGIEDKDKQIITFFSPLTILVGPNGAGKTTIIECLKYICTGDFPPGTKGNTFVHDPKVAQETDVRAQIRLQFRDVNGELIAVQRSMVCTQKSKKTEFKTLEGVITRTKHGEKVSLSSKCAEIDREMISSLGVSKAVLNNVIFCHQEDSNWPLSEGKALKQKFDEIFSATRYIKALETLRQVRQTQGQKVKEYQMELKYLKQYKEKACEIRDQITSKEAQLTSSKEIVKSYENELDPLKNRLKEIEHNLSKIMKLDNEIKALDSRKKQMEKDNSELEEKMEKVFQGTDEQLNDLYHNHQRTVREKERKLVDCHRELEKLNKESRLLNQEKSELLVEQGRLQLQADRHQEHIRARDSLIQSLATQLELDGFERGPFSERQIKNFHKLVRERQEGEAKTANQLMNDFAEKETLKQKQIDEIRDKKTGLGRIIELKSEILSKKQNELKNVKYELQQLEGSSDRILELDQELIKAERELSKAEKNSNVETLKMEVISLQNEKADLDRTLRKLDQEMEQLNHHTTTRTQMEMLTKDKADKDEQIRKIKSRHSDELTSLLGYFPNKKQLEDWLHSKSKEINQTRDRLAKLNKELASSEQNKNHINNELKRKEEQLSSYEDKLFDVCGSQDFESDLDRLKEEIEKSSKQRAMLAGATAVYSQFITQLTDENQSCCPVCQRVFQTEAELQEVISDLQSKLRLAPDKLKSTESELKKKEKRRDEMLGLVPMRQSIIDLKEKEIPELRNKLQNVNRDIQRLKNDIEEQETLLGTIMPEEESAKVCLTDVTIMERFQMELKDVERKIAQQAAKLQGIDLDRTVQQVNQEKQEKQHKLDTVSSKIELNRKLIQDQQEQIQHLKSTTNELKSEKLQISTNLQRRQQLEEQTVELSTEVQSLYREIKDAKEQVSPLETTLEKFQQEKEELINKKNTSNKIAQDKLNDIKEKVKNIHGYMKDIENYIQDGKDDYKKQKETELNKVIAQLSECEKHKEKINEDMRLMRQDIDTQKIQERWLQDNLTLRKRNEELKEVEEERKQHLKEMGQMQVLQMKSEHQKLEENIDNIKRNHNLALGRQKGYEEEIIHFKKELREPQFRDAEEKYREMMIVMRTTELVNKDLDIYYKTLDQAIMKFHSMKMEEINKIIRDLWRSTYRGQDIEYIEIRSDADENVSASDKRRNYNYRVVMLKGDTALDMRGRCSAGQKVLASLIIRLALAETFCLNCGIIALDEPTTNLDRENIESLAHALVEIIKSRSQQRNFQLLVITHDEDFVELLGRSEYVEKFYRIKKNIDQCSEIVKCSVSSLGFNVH
# UniProt Q9Y3T6: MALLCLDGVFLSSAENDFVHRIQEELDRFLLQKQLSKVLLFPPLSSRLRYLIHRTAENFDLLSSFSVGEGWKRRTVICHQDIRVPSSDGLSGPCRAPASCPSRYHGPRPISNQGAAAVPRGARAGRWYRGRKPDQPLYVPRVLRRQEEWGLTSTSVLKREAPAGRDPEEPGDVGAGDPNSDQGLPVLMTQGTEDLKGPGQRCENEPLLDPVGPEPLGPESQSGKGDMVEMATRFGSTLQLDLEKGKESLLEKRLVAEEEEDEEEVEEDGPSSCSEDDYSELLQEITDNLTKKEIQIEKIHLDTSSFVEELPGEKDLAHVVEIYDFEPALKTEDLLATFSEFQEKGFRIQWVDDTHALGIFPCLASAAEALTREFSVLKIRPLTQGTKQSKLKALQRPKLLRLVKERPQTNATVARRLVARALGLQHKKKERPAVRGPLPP
# UniProt P61006: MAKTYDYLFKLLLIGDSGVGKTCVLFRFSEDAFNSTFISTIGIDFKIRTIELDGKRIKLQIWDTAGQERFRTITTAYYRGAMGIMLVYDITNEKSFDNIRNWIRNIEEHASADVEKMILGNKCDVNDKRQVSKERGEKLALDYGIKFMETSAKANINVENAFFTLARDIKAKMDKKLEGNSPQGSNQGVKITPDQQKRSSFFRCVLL
# UniProt Q8TB72: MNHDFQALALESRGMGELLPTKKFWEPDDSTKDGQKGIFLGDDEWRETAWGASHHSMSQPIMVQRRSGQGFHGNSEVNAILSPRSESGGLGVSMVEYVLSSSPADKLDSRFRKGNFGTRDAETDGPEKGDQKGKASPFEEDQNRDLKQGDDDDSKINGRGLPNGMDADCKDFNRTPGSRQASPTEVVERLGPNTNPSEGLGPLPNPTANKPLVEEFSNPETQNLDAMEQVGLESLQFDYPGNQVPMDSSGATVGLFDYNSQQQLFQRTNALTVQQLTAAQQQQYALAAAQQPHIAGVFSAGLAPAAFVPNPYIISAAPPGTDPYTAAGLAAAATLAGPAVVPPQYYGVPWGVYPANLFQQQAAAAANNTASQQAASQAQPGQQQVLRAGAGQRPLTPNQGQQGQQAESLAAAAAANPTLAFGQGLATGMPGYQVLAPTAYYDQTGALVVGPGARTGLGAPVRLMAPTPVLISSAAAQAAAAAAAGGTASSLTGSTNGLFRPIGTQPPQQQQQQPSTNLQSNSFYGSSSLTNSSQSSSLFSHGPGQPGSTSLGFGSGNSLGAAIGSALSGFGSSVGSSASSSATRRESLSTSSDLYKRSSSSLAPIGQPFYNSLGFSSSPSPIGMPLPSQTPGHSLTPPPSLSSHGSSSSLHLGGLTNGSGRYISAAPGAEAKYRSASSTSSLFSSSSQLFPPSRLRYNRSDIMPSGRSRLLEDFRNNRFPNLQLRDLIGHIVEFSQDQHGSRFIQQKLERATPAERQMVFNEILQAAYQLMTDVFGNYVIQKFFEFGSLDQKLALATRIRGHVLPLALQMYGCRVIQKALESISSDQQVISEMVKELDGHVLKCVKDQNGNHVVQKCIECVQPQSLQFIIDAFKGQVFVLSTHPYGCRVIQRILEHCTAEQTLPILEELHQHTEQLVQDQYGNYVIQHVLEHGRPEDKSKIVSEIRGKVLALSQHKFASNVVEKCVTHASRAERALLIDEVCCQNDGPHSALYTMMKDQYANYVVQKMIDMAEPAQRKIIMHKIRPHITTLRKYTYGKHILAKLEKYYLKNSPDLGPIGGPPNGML
# UniProt Q9H2M9: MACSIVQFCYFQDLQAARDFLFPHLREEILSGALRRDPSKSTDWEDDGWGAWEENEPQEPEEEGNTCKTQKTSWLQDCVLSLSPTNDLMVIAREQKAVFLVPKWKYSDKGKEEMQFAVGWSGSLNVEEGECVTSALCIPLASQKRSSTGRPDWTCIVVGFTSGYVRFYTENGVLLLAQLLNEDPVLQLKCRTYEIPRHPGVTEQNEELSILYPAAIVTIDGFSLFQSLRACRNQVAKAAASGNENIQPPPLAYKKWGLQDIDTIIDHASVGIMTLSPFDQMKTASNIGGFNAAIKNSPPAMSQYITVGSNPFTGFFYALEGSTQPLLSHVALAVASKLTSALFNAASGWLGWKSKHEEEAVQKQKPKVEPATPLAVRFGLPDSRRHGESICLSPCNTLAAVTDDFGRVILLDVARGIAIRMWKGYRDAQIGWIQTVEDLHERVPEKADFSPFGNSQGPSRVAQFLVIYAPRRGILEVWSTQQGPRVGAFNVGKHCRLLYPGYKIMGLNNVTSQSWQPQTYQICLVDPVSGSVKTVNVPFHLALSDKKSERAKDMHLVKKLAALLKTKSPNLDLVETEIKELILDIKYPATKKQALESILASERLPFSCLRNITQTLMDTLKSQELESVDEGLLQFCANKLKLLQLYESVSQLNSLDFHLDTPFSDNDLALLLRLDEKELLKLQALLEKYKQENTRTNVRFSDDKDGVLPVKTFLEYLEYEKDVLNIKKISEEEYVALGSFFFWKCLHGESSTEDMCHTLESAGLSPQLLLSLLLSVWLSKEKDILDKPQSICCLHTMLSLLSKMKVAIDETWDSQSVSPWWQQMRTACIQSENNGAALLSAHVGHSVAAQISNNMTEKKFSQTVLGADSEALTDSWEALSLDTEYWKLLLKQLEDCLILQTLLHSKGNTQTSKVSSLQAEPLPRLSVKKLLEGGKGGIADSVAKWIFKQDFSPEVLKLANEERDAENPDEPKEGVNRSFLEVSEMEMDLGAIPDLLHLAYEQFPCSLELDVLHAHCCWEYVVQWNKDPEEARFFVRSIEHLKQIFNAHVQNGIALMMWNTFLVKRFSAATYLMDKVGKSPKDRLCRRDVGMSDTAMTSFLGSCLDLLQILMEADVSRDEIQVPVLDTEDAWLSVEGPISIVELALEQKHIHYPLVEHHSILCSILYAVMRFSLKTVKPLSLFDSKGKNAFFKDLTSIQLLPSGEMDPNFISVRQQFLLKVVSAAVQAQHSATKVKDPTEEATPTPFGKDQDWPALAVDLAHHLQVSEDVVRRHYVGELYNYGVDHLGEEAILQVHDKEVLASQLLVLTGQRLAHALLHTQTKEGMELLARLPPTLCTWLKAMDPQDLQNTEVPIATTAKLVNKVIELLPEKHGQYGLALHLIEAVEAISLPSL
# Some of the results follow.
# Compound: CC1Cc2ccccc2N1C(=O)C1CCCN(C1)C(=O)CCl (mixture of isomers) [TRIM25 ligand 11 (diastereomer mixture)]
# Assay: probe-labelled cysteine peptide fold change vs DMSO (competition) (log2 fold change); higher = less target engagement (more negative = stronger competition)
# Settings: THP-1, incubation time: 4 h
# 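Further: competitive chemoproteomic profiling in live THP-1 cells with an iodoacetamide desthiobiotin (IA-DTB) probe, comparing probe-labelled peptide intensities in compound-treated cells against DMSO-treated controls.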
Target,probe-labelled cysteine peptide fold change (10 µM),probe-labelled cysteine peptide fold change (50 µM)
RAB18_Q9NP72_155_TCDGVQCAFEELVEK (UniProt Q9NP72),-0.0386,-0.358
RAD51B_O15315_27_HQILTCQDFLCLSPLELMK (UniProt O15315),0.0744,0.194
UniProt Q8N1Y9_Q8N1Y9_79_GCLPGK,-0.184,0.0174
PYGB_P11216_437_MSVIEEGDCK (UniProt P11216),0.0306,-0.0695
RABEP2_Q9H5N1_482_VQREETEVLEASLCSLR (UniProt Q9H5N1),-0.0883,-0.0452
QARS_P47897_556_VGVTVAQTTMEPHLLEACVR (UniProt P47897),0.0673,0.0826
PWP2_Q15269_60_CVGLSPDGR (UniProt Q15269),0.0189,0.0846
RAD50_Q92878_133_CAEIDR (UniProt Q92878),0.183,-0.017
R3HCC1_Q9Y3T6_362_IQWVDDTHALGIFPCLASAAEALTR (UniProt Q9Y3T6+R3HCC1),-0.309,-0.204
RAB9A_P51151_142_QVSTEEAQAWCR (UniProt P51151),-0.0259,-0.13
RAB8A_P61006_123_CDVNDKR (UniProt P61006),-0.067,-0.109
RACK1_P63244_168_FSPNSSNPIIVSCGWDK (UniProt P63244),0.0732,-0.0677
RABL6_Q3YEC7_140_NCNGVVMMFDITK (UniProt Q3YEC7),0.00811,0.0107
PUM2_Q8TB72_887_GQVFVLSTHPYGCR (UniProt Q8TB72),0.182,-0.00723
RAB3GAP2_Q9H2M9_793_DILDKPQSICCLHTMLSLLSK (UniProt Q9H2M9),0.202,0.0417
